The source of these data is PMC9005695.

No constants are given. Whether binding was seen depends on the method and setting. Tags and fused reporters may be left off the sequences shown.

The target of the assay is T1, GST-Pdr3 (S. cerevisiae) (UniProt P33200).
T1 sequence: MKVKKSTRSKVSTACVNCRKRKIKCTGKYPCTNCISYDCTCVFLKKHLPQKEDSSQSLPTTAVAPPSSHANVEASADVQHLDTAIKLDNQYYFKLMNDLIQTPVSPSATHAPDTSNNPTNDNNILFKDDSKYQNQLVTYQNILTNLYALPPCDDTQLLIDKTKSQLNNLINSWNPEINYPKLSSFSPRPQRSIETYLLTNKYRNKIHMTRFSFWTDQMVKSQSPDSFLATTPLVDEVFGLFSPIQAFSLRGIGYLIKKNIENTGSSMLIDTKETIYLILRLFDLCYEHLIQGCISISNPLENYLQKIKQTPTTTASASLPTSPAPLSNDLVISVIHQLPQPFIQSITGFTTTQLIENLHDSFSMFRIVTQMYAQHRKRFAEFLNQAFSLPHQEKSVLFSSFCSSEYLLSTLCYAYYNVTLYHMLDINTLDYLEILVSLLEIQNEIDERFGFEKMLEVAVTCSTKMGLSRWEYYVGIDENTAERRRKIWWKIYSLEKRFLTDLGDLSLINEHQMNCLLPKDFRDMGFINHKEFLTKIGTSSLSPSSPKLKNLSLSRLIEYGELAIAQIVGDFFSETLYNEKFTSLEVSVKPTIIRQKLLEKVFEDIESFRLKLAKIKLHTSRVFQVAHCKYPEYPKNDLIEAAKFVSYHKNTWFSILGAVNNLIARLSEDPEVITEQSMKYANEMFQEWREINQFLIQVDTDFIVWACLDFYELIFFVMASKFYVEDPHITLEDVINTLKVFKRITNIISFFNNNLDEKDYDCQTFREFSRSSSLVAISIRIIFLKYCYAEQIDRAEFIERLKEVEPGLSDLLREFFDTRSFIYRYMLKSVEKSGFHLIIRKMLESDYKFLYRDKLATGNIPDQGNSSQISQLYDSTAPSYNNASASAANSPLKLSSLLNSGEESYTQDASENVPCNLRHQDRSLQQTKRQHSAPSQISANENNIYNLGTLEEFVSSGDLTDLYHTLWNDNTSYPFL
The assay is described as follows: pull-down; GST fusions bound to glutathione-Sepharose beads incubated with purified SWI/SNF or purified His-Rtt106; Binding buffer (PBS, 0.1% Triton X-100, 1 mM MgCl2, 1 mM DTT, 10% glycerol), 4 °C, 2 h; western blot with anti-FLAG (Snf6-3FLAG) or anti-His; both purified. In general terms: Immunoblotting shows a protein as a band on a membrane.

B1: His-Rtt106 (protein, UniProt P40161 1-455)
chain: MSKLFLDELPESLSRKIGTVVRVLPSSLEIFEELYKYALNENSNDRSGRHKKPRIDVSSDLLKTDEISETNTIFKLEGVSVLSPLRKKLDLVFYLSNVDGSPVITLLKGNDRELSIYQLNKNIKMASFLPVPEKPNLIYLFMTYTSCEDNKFSEPVVMTLNKENTLNQFKNLGLLDSNVTDFEKCVEYIRKQAILTGFKISNPFVNSTLVDTDAEKINSFHLQCHRGTKEGTLYFLPDHIIFGFKKPILLFDASDIESITYSSITRLTFNASLVTKDGEKYEFSMIDQTEYAKIDDYVKRKQMKDKSMSEELKAKSKSKGQATDGTADQPSILQEATRQMQDEKKAGVFSDDDEENDQNFEAESDLSDGSGQESSDGAEDGEEAEEDDEEDDEEEDKKGQSALNRDNSFASINGQPEQELQYKEFKEPLELEDIPIEIDNDDDEDDEDGSGVEYD
As to B1, the binding result is recorded as “no binding”.
